Results as given in PMC11111408, “Concurrent inhibition of oncogenic and wild-type RAS-GTP for cancer therapy” (Nature, 2024).
The source gives many values for each of these; only a part stands here.

Test system: PRISM DNA-barcoded human tumour cell lines
Assay: PRISM pooled cell viability assay;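 further: 8 threefold dilutions from 10 µM with 5 days of exposure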
Type: cell-based
Design: Area under the curve (AUC): scale not given here
Conditions: for PRISM AUC: KRAS MUT
Description: Cells were then lysed in TCL mRNA lysis buffer, and then PCR with reverse transcription was performed. Detection of the barcodes and univariate and multivariate analysis was then performed as previously described. Data analysis is described in the Supplementary Methods. Up-to-date code for our analysis is at the github link: https://github.com/cmap/dockerized_mts.
For every gene with non-silent mutations in at least four cell-lines, we compared the AUC values between cells with and without those mutations using a t-test. This analysis was carried out for: (i) the full dataset; (ii) excluding cell lines with non-silent KRAS mutations; and (iii) excluding cell lines that have either KRAS or NRAS non-silent mutations.

[1] = RCHACV_HAEMATOPOIETIC_AND_LYMPHOID_TISSUE

Structure (SMILES): CCn1c(-c2cc(N3CCN(C4CC4)CC3)cnc2[C@H](C)OC)c2c3cc(ccc31)-c1csc(n1)C[C@H](NC(=O)[C@H]1[C@@H]3COC[C@@H]31)C(=O)N1CCC[C@H](N1)C(=O)OCC(C)(C)C2 [RMC-7977]
- Area under the curve (AUC) (PRISM cell line U343_CENTRAL_NERVOUS_SYSTEM): 0.7211
- Area under the curve (AUC) (PRISM cell line U937_HAEMATOPOIETIC_AND_LYMPHOID_TISSUE): 0.6008
- Area under the curve (AUC) (PRISM cell line U2940_HAEMATOPOIETIC_AND_LYMPHOID_TISSUE): 0.8649
- Area under the curve (AUC) (PRISM cell line U2973_HAEMATOPOIETIC_AND_LYMPHOID_TISSUE): 0.8907
- Area under the curve (AUC) (PRISM cell line UACC62_SKIN): 0.8808
- Area under the curve (AUC) (PRISM cell line UACC257_SKIN): 0.8233
- Area under the curve (AUC) (PRISM cell line UBLC1_URINARY_TRACT): 0.4827
- Area under the curve (AUC) (PRISM cell line ULA_HAEMATOPOIETIC_AND_LYMPHOID_TISSUE): 0.734
- Area under the curve (AUC) (PRISM cell line UMRC3_KIDNEY): 0.8855
- Area under the curve (AUC) (PRISM cell line UMRC7_KIDNEY): 0.7617
- Area under the curve (AUC) (PRISM cell line UMUC1_URINARY_TRACT): 0.5901
- Area under the curve (AUC) (PRISM cell line UMUC5_URINARY_TRACT): 0.4821
- Area under the curve (AUC) (PRISM cell line UMUC6_URINARY_TRACT): 0.3557
- Area under the curve (AUC) (PRISM cell line UMUC7_URINARY_TRACT): 0.6909
- Area under the curve (AUC) (PRISM cell line UMUC10_URINARY_TRACT): 0.7802
- Area under the curve (AUC) (PRISM cell line UMUC11_URINARY_TRACT): 0.7319
- Area under the curve (AUC) (PRISM cell line UMUC13_URINARY_TRACT): 0.527
- Area under the curve (AUC) (PRISM cell line UO31_KIDNEY): 0.8639
- Area under the curve (AUC) (PRISM cell line UPCISCC072_UPPER_AERODIGESTIVE_TRACT): 0.6301
- Area under the curve (AUC) (PRISM cell line UPCISCC111_UPPER_AERODIGESTIVE_TRACT): 0.5006
- Area under the curve (AUC) (PRISM cell line UPCISCC116_UPPER_AERODIGESTIVE_TRACT): 0.3974
- Area under the curve (AUC) (PRISM cell line UW228_CENTRAL_NERVOUS_SYSTEM): 0.5725
- Area under the curve (AUC) (PRISM cell line VAESBJ_SOFT_TISSUE): 0.9566
- Area under the curve (AUC) (PRISM cell line VAL_HAEMATOPOIETIC_AND_LYMPHOID_TISSUE): 0.8253
- Area under the curve (AUC) (PRISM cell line VMCUB1_URINARY_TRACT): 0.5136
- Area under the curve (AUC) (PRISM cell line VMRCRCW_KIDNEY): 0.9168
- Area under the curve (AUC) (PRISM cell line VMRCRCZ_KIDNEY): 0.799
- Area under the curve (AUC) (PRISM cell line WAOSEL_HAEMATOPOIETIC_AND_LYMPHOID_TISSUE): 0.6372
- Area under the curve (AUC) (PRISM cell line WERIRB1_AUTONOMIC_GANGLIA): 0.7995
- Area under the curve (AUC) (PRISM cell line WM88_SKIN): 0.8433
- Area under the curve (AUC) (PRISM cell line WM793_SKIN): 0.8212
- Area under the curve (AUC) (PRISM cell line WM983B_SKIN): 0.8889
- Area under the curve (AUC) (PRISM cell line WM1799_SKIN): 0.895
- Area under the curve (AUC) (PRISM cell line WM2664_SKIN): 1
- Area under the curve (AUC) (PRISM cell line WSUDLCL2_HAEMATOPOIETIC_AND_LYMPHOID_TISSUE): 0.7398
- Area under the curve (AUC) (PRISM cell line YAPC_PANCREAS): 0.3838
- Area under the curve (AUC) (PRISM cell line YD8_UPPER_AERODIGESTIVE_TRACT): 0.6798
- Area under the curve (AUC) (PRISM cell line YD10B_UPPER_AERODIGESTIVE_TRACT): 0.5071
- Area under the curve (AUC) (PRISM cell line YD15_SALIVARY_GLAND): 0.6061
- Area under the curve (AUC) (PRISM cell line YD38_UPPER_AERODIGESTIVE_TRACT): 0.3904
- Area under the curve (AUC) (PRISM cell line YH13_CENTRAL_NERVOUS_SYSTEM): 0.8657
- Area under the curve (AUC) (PRISM cell line YKG1_CENTRAL_NERVOUS_SYSTEM): 0.6932
- Area under the curve (AUC) (PRISM cell line YSCCC_BILIARY_TRACT): 0.8108
- Area under the curve (AUC) (PRISM cell line ZR751_BREAST): 0.889
- Area under the curve (AUC) (PSN1_PANCREAS): 0.3751
- Area under the curve (AUC) (QGP1_PANCREAS): 0.5441
- Area under the curve (AUC) (RBE_BILIARY_TRACT): 0.4809
- Area under the curve (AUC) (RCC10RGB_KIDNEY): 0.8801
- Area under the curve (AUC) [1]: 0.8967
- PRISM AUC [1]: 0.7583
- Area under the curve (AUC) (RCK8_HAEMATOPOIETIC_AND_LYMPHOID_TISSUE): 0.7966
- Area under the curve (AUC) (RCM1_LARGE_INTESTINE): 0.3302
- Area under the curve (AUC) (RDES_BONE): 0.9122
- Area under the curve (AUC) (RD_SOFT_TISSUE): 0.3974
- Area under the curve (AUC) (RERFGC1B_STOMACH): 0.6809
- Area under the curve (AUC) (RERFLCAD1_LUNG): 0.7707
- PRISM AUC (RERFLCAD1_LUNG): 0.7443
- Area under the curve (AUC) (RERFLCAD2_LUNG): 0.4397
- Area under the curve (AUC) (RERFLCAI_LUNG): 0.7378
- Area under the curve (AUC) (RERFLCKJ_LUNG): 0.8933
- Area under the curve (AUC) (RERFLCMS_LUNG): 0.8678
- Area under the curve (AUC) (RH4_SOFT_TISSUE): 0.8793
- Area under the curve (AUC) (RH28_SOFT_TISSUE): 1
- Area under the curve (AUC) (RH30_SOFT_TISSUE): 0.7611
- Area under the curve (AUC) (RH36_SOFT_TISSUE): 0.5745
- Area under the curve (AUC) (RI1_HAEMATOPOIETIC_AND_LYMPHOID_TISSUE): 0.7813
- Area under the curve (AUC) (RKN_SOFT_TISSUE): 0.3164
- Area under the curve (AUC) (RKO_LARGE_INTESTINE): 0.8838
- Area under the curve (AUC) (RL952_ENDOMETRIUM): 0.3899
- Area under the curve (AUC) (RL_HAEMATOPOIETIC_AND_LYMPHOID_TISSUE): 0.698
- Area under the curve (AUC) (RMGI_OVARY): 0.6195
- Area under the curve (AUC) (RMSYM_SOFT_TISSUE): 0.8685
- Area under the curve (AUC) (RMUGS_OVARY): 0.8513
- Area under the curve (AUC) (RO82W1_THYROID): 0.6499
- Area under the curve (AUC) (RPMI7951_SKIN): 0.8835
- Area under the curve (AUC) (RPMI8402_HAEMATOPOIETIC_AND_LYMPHOID_TISSUE): 0.8325
- Area under the curve (AUC) (RT4_URINARY_TRACT): 0.5474
- Area under the curve (AUC) (RT112_URINARY_TRACT): 0.3119
- Area under the curve (AUC) (RVH421_SKIN): 0.8271
- Area under the curve (AUC) (S117_THYROID): 0.6069
- Area under the curve (AUC) (SAOS2_BONE): 1
- Area under the curve (AUC) (SBC5_LUNG): 0.7851
- Area under the curve (AUC) (SCABER_URINARY_TRACT): 0.5726
- Area under the curve (AUC) (SCC3_HAEMATOPOIETIC_AND_LYMPHOID_TISSUE): 0.5368
- Area under the curve (AUC) (SCC9_UPPER_AERODIGESTIVE_TRACT): 0.4075
- Area under the curve (AUC) (SCC25_UPPER_AERODIGESTIVE_TRACT): 0.552
- Area under the curve (AUC) (SCLC21H_LUNG): 0.7946
- Area under the curve (AUC) (SEM_HAEMATOPOIETIC_AND_LYMPHOID_TISSUE): 0.7824
- Area under the curve (AUC) (SF126_CENTRAL_NERVOUS_SYSTEM): 0.8289
- Area under the curve (AUC) (SF295_CENTRAL_NERVOUS_SYSTEM): 0.777
- Area under the curve (AUC) (SF539_CENTRAL_NERVOUS_SYSTEM): 0.6596
- Area under the curve (AUC) (SG231_BILIARY_TRACT): 0.2187
- Area under the curve (AUC) (SH4_SKIN): 0.9047
- Area under the curve (AUC) (SH10TC_STOMACH): 0.6214
- Area under the curve (AUC) (SHMAC5_PROSTATE): 0.456
- Area under the curve (AUC) (SHP77_LUNG): 0.873
- Area under the curve (AUC) (SIMA_AUTONOMIC_GANGLIA): 0.8241
- Area under the curve (AUC) (SISO_CERVIX): 0.4817
- Area under the curve (AUC) (SJSA1_BONE): 0.6167
- PRISM AUC (SJSA1_BONE): 0.5047
- Area under the curve (AUC) (SKES1_BONE): 0.8287
- Area under the curve (AUC) (SKGII_ENDOMETRIUM): 0.7172
- Area under the curve (AUC) (SKGI_ENDOMETRIUM): 0.6094
- Area under the curve (AUC) (SKGT2_STOMACH): 0.6419
- Area under the curve (AUC) (SKGT4_OESOPHAGUS): 0.4574
- Area under the curve (AUC) (SKHEP1_LIVER): 0.8479
- Area under the curve (AUC) (SKLMS1_SOFT_TISSUE): 0.6292
- Area under the curve (AUC) (SKLU1_LUNG): 0.439
- Area under the curve (AUC) (SKM1_HAEMATOPOIETIC_AND_LYMPHOID_TISSUE): 0.2381
- Area under the curve (AUC) (SKMEL2_SKIN): 0.711
- Area under the curve (AUC) (SKMEL3_SKIN): 1
- Area under the curve (AUC) (SKMEL5_SKIN): 0.8732
- Area under the curve (AUC) (SKMEL24_SKIN): 0.7818
- Area under the curve (AUC) (SKMEL28_SKIN): 1
- Area under the curve (AUC) (SKMEL30_SKIN): 0.552
- Area under the curve (AUC) (SKMES1_LUNG): 0.6852
- Area under the curve (AUC) (SKNAS_AUTONOMIC_GANGLIA): 0.5373
- Area under the curve (AUC) (SKNBE2_AUTONOMIC_GANGLIA): 0.6192
